Drawing on article PMC7017048, this text covers binding for 3 substances.

By UniProt entry, the sequences of proteins in these tests, tags left out.
UniProt P18272: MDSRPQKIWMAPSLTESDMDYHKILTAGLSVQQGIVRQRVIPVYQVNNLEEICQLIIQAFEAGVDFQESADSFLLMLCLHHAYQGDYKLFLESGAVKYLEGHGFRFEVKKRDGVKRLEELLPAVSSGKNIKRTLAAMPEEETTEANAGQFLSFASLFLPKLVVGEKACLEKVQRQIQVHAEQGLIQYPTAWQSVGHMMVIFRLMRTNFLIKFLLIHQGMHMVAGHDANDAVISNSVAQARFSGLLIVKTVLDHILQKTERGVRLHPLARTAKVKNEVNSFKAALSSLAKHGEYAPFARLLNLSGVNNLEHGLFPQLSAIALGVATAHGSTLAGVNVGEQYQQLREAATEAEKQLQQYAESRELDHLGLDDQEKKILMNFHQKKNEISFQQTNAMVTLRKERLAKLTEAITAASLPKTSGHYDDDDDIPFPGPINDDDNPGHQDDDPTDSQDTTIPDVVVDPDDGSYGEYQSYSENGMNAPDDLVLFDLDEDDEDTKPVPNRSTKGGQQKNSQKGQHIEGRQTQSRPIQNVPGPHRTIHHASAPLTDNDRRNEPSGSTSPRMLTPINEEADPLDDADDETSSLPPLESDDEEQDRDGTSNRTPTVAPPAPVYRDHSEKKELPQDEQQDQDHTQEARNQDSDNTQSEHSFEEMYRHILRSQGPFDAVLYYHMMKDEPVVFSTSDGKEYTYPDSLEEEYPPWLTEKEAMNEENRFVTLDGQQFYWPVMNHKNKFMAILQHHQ
UniProt Q05128: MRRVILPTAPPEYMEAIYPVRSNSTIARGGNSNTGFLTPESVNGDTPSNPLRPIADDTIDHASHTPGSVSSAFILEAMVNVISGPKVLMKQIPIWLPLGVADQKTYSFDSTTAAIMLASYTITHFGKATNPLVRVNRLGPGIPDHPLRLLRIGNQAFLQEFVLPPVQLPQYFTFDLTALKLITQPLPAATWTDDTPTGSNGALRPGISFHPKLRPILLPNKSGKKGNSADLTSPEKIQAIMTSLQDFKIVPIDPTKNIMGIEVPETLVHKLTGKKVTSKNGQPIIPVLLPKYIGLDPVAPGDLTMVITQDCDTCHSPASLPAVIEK
UniProt Q05323: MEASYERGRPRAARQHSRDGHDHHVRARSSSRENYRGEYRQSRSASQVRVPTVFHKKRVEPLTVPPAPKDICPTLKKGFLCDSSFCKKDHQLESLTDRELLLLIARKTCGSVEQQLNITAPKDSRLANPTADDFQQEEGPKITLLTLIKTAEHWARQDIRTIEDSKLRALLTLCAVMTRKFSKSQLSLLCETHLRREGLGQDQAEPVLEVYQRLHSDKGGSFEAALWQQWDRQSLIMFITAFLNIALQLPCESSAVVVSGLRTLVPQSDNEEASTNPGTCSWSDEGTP

Results are given in words; binding and its absence hold for the method and conditions named. Binding seen in cells or lysates may run through a third protein. Some binding calls cover weakened binding; strength is not graded here. Tags and fused reporters may be left off the sequences shown.

For the assay, the target named is T1, flag/HA-tagged nuclear RNA export factor 1 (NXF1), wildtype (UniProt Q9UBU9).
T1 sequence: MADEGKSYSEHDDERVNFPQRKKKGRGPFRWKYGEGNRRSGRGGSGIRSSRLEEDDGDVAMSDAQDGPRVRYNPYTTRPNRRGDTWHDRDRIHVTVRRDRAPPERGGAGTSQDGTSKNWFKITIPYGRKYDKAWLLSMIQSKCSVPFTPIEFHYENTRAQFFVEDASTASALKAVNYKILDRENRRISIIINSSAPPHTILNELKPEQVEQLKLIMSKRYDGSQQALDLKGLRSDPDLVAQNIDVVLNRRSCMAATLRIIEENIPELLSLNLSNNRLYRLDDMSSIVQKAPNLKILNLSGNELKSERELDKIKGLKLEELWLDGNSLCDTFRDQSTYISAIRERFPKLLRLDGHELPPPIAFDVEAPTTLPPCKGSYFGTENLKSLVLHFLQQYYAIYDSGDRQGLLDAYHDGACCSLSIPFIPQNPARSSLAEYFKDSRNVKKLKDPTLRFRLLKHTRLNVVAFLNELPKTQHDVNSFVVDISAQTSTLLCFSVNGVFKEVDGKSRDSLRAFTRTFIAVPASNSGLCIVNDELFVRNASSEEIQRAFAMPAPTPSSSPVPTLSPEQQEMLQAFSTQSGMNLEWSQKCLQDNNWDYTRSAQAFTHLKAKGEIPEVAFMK
The experiment in a line: co-IP.
Turning to “Ebola virus (EBOV) nucleoprotein (NP) (from UniProt P18272 1-739)”, the binding result is “binds”.
The entry for “Ebola virus matrix protein VP40 (from UniProt Q05128 1-326)” is “no binding”; for “Ebola virus transcriptional activator viral protein 30 (VP30) (from UniProt Q05323 1-288)” it is “no binding”.
